In the supplement of paper PMC10849652:
Some of the results follow.

The chains behind the UniProt entries cited, without tags or fusion partners. Where a name states a change or a piece, a line headed by the entry shows the natural chain unless it says otherwise.
UniProt Q674X7: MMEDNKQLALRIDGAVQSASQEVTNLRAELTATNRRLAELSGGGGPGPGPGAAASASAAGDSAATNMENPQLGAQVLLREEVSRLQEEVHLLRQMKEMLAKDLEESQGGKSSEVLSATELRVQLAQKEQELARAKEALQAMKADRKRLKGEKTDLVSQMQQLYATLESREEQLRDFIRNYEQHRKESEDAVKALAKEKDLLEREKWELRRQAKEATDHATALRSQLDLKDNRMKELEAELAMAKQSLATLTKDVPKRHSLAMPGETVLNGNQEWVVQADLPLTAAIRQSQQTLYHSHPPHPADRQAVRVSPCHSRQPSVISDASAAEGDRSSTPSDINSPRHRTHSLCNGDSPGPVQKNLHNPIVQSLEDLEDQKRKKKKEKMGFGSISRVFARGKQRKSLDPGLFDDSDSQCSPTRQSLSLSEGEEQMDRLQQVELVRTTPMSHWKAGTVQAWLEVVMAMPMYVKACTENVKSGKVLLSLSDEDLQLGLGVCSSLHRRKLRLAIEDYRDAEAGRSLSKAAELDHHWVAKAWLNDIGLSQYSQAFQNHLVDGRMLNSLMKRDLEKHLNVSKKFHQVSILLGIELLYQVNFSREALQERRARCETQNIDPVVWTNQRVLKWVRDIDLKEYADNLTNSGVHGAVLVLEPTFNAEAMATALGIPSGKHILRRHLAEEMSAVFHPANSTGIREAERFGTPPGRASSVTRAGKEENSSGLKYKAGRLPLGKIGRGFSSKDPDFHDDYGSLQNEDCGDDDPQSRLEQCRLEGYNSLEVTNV
UniProt Q14681: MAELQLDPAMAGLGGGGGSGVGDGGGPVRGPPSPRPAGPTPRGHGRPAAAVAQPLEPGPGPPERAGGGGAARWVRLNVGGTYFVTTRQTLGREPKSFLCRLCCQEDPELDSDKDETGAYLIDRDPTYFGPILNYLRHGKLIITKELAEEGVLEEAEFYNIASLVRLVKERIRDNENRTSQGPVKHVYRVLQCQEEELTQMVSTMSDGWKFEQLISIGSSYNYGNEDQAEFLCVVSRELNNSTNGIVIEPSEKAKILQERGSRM
UniProt Q7Z4S6: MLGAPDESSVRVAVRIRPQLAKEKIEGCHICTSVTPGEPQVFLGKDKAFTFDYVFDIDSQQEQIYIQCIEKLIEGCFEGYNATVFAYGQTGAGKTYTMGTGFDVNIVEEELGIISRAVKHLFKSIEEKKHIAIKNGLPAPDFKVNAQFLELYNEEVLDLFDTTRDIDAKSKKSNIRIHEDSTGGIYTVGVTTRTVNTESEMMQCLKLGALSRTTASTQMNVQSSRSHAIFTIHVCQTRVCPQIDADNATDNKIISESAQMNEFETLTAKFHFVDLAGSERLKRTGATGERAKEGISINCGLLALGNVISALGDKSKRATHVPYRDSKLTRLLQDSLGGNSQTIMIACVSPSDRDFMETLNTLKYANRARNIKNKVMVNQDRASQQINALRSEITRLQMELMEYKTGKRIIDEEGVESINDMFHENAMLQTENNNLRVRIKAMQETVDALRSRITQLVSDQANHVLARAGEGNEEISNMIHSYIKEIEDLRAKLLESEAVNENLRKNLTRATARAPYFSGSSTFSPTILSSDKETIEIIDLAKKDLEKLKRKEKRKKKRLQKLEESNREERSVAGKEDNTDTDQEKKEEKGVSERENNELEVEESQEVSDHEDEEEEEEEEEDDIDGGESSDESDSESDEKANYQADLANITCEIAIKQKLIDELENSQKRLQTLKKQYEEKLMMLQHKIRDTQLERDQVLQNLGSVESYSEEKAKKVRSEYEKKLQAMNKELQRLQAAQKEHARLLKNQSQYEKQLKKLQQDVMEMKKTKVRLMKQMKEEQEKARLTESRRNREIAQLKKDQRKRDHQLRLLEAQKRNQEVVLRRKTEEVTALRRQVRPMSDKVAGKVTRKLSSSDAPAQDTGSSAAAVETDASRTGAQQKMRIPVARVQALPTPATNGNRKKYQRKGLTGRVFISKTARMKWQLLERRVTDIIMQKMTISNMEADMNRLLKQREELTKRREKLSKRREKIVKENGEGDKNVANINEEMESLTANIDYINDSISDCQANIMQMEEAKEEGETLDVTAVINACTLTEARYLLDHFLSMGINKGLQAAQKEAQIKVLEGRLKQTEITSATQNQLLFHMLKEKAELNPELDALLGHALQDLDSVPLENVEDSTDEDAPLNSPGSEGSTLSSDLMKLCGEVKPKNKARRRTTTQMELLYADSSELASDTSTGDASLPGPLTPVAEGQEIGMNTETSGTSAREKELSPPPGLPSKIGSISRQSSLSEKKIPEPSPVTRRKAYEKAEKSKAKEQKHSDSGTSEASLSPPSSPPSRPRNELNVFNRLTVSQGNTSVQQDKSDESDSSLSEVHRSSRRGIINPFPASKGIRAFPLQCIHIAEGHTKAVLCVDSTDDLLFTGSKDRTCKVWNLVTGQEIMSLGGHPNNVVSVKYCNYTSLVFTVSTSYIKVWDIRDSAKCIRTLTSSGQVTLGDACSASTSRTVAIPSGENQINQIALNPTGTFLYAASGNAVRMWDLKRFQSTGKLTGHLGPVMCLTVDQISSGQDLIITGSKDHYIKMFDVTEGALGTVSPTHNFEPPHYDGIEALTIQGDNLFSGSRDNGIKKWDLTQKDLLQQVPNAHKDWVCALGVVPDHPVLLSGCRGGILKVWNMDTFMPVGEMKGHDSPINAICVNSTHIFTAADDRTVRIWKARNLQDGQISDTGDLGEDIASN
UniProt Q9BVA0, whole entry, looked up: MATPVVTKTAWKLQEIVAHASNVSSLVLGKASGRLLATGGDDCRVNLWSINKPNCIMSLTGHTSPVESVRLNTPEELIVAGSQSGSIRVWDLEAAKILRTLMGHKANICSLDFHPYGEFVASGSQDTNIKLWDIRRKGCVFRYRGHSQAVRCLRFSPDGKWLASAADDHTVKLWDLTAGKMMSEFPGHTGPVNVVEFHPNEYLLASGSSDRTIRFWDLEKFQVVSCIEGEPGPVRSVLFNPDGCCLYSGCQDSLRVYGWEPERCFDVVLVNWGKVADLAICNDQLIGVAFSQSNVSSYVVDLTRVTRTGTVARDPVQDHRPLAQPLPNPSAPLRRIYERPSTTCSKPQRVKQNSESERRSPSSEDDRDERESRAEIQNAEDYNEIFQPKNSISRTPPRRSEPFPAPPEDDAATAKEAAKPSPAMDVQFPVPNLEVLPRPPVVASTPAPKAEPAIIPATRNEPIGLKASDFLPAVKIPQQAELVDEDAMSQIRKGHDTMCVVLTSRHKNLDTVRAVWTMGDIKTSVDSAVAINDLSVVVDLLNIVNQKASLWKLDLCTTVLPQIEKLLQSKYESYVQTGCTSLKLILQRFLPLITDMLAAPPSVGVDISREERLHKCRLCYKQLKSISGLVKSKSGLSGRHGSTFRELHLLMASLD
UniProt Q9Y2K7: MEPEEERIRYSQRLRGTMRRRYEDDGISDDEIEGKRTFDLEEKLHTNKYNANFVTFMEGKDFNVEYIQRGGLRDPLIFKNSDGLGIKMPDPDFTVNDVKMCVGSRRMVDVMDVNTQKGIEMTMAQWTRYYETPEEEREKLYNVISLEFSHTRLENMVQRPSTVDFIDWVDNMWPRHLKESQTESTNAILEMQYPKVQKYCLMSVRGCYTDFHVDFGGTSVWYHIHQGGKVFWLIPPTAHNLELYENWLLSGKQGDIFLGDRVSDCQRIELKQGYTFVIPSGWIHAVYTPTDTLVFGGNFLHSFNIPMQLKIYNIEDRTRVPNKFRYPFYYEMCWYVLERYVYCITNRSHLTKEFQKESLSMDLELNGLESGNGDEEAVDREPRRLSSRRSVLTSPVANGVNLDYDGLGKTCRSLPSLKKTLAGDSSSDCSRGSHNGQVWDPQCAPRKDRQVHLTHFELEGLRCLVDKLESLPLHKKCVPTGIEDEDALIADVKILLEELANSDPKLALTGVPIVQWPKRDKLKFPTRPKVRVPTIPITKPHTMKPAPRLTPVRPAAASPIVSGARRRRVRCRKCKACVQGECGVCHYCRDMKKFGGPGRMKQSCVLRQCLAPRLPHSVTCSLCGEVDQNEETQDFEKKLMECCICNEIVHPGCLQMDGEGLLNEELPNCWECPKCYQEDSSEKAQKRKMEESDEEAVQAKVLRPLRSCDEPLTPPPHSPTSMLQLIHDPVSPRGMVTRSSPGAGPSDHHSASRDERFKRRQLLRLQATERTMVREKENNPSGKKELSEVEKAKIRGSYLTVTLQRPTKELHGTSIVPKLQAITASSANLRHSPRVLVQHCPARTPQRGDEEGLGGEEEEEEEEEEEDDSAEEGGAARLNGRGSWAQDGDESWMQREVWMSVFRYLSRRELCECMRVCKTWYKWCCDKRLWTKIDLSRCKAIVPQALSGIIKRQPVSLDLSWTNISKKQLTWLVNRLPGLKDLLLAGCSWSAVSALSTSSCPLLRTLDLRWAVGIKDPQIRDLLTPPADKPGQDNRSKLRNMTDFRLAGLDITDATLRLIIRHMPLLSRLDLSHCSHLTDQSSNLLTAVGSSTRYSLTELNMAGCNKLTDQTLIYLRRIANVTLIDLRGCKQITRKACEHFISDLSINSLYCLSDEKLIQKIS
UniProt P33947: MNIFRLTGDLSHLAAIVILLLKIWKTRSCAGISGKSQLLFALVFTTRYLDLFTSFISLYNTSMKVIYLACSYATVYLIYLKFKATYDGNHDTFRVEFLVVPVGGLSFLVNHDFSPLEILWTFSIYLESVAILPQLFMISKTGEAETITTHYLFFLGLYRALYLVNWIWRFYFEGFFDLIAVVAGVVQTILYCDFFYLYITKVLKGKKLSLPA

Legend:
Assay in all cases: log2 fold change, soluble protein after heating vs DMSO (PISA); higher = thermal stabilisation; K562 cells, 10 uM, 30 min; active = over 0.2 and 3.5 SD of the protein, either way, in both replicates (recomputed)
[1] = compound: CC1=C(C=C(C=C1)NC(=O)C2=CC(=CC=C2)C(C)(C)C#N)NC3=CC4=C(C=C3)N=CN(C4=O)C
Procedure, shortened: (§1)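 Values are thermal stability changes relative to control samples and are taken from duplicates. They are stated as log2 fold changes. Before quantification by TMTpro 16plex LC-MS/MS with equalised channel sums, K562 cells at 2×10^6 cells/mL were treated with 10 μM compound for 30 min, heated in aliquots for 3 min across 48°C-58°C, pooled, extracted in PBS with 0.5% NP-40 at 4°C, and centrifuged at 21,000xg for 90 min to give the soluble supernatant.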

[2] = compound: CC1=C(C=C(C=C1)NC(=O)C2=CC(=CC=C2)N(C)C)NC(=O)C3=CC=C(C=C3)O
Procedure, shortened: as §1

[3] = compound: CC1=CC=C(C=C1)SC2=C3C=C(SC3=CN=C2)C(=O)N
Procedure, shortened: as §1

[4] = compound: CC1=NC(=CC=C1)C2=C(N=C(N2)C(C)(C)C)C3=CC4=NC=CN=C4C=C3
Procedure, shortened: as §1

Nexturastat A = compound: CCCCN(Cc1ccc(C(=O)NO)cc1)C(=O)Nc1ccccc1 [Nexturastat A]
Procedure, shortened: as §1

vemurafenib = compound: CCCS(=O)(=O)Nc1ccc(F)c(C(=O)c2c[nH]c3ncc(-c4ccc(Cl)cc4)cc23)c1F [vemurafenib]
Procedure, shortened: as §1

[5] = compound: CCCS(=O)(=O)Nc1ccc(F)c(C(=O)c2c[nH]c3ncc(Cl)cc23)c1F
Procedure, shortened: as §1

[6] = compound: CCCc1cc(C)[nH]c(=O)c1CNC(=O)c1cc(-c2ccnc(N3CCN(C)CC3)c2)cc2c1cnn2C(C)C
Procedure, shortened: as §1

givinostat = compound: CCN(CC)Cc1ccc2cc(COC(=O)Nc3ccc(C(=O)NO)cc3)ccc2c1 [givinostat]
Procedure, shortened: as §1

barasertib = compound: CCN(CCCOc1ccc2c(Nc3cc(CC(=O)Nc4cccc(F)c4)[nH]n3)ncnc2c1)CCOP(=O)(O)O [barasertib]
Procedure, shortened: as §1

[7] = compound: CC[C@@H]1C(=O)N(C)c2cnc(Nc3ccc(C(=O)NC4CCN(C)CC4)cc3OC)nc2N1C1CCCC1
Procedure, shortened: as §1

volasertib = compound: CC[C@@H]1C(=O)N(C)c2cnc(Nc3ccc(C(=O)N[C@H]4CC[C@H](N5CCN(CC6CC6)CC5)CC4)cc3OC)nc2N1C(C)C [volasertib]
Procedure, shortened: as §1

[8] = compound: CC[C@H](C)N1C=C(C2=C(C=C(C=C21)C3=CN=C(C=C3)N4CCNCC4)C(=O)NCC5=C(C=C(NC5=O)C)C)C
Procedure, shortened: as §1

epoxomicin = compound: CC[C@H](C)[C@@H](C(=O)N[C@@H]([C@@H](C)O)C(=O)N[C@@H](CC(C)C)C(=O)[C@]1(CO1)C)NC(=O)[C@H]([C@@H](C)CC)N(C)C(=O)C [epoxomicin]
Procedure, shortened: as §1

[9] = compound: CCn1c(C(=O)N(C2CC2)C2CC2)cc2c3c(ncn3C)c(Nc3cc(C)n(C)n3)nc21
Procedure, shortened: as §1

[10] = compound: CCn1cc(-c2ccnc3[nH]c(-c4cccc(CN(C)C)c4)cc23)c(-c2ccc(NC(=O)N(C)C)cc2)n1
Procedure, shortened: as §1

[11] = compound: CN(C)CC(=O)Nc1ccc2[nH]c(=O)c3ccccc3c2c1
Procedure, shortened: as §1

rosiglitazone = compound: CN(CCOC1=CC=C(C=C1)C[C@H]2C(=O)NC(=O)S2)C3=CC=CC=N3 (racemic) [rosiglitazone]
Procedure, shortened: as §1

[12] = compound: CN1C2=C(C3=C1C(=O)N(N=C3)CC4=CC(=CC=C4)N)SC(=C2)S(=O)C
Procedure, shortened: as §1

[13] = compound: CN1CCC(CNc2ccc3ncc(-c4cccc(OC(F)(F)F)c4)n3n2)CC1
Procedure, shortened: as §1

Measured: log2 fold change

KIAA0100 (UniProt Q14667)
inactive: [1] 0 | [2] -0.016 | [3] 0.022 | [4] -0.058 | Nexturastat A -0.03 | vemurafenib 0.041 | [5] -0.035 | [6] -0.046 | givinostat 0.21 | barasertib 0.057 | [7] -0.175 | volasertib -0.047 | [8] 0.094 | epoxomicin -0.018 | [9] -0.067 | [10] -0.01 | [11] 0.01 | rosiglitazone 0.02 | [12] -0.1 | [13] -0.048

KAZN isoform 3 (UniProt Q674X7)
inactive: [1] 0.013 | [2] -0.016 | [3] 0.007 | [4] 0.029 | Nexturastat A 0.07 | vemurafenib -0.033 | [5] -0.042 | [6] -0.026 | givinostat -0.038 | barasertib -0.02 | [7] 0.051 | volasertib 0.061 | [8] 0.03 | epoxomicin 0.013 | [9] -0.07 | [10] 0.003 | [11] 0.003 | rosiglitazone -0.057 | [12] 0.007 | [13] 0.017

KCTD2 (UniProt Q14681)
inactive: [1] -0.421 | [2] 0.087 | [3] -0.343 | [4] -0.084 | Nexturastat A 0.072 | vemurafenib -0.164 | [5] -0.468 | [6] -0.163 | givinostat 0.078 | barasertib 0.018 | [7] 0.003 | volasertib 0.029 | [8] -0.033 | epoxomicin -0.052 | [10] -0.024 | [11] -0.068 | [12] 0.049 | [13] -0.623

KIF21A isoform 4 (UniProt Q7Z4S6)
inactive: [1] 0.051 | [2] -0.067 | [3] -0.003 | [4] -0.043 | Nexturastat A 0.106 | vemurafenib -0.045 | [5] 0.014 | [6] -0.025 | givinostat 0.069 | barasertib 0.104 | [7] 0.073 | volasertib -0.019 | [8] 0.038 | epoxomicin 0.066 | [10] -0.121 | [11] 0.013 | [12] 0.054 | [13] 0.076

Two consecutive entries out of the list so far, for reference:
KIAA0100 (UniProt Q14667)
inactive: [1] 0 | [2] -0.016 | [3] 0.022 | [4] -0.058 | Nexturastat A -0.03 | vemurafenib 0.041 | [5] -0.035 | [6] -0.046 | givinostat 0.21 | barasertib 0.057 | [7] -0.175 | volasertib -0.047 | [8] 0.094 | epoxomicin -0.018 | [9] -0.067 | [10] -0.01 | [11] 0.01 | rosiglitazone 0.02 | [12] -0.1 | [13] -0.048

KAZN isoform 3 (UniProt Q674X7)
inactive: [1] 0.013 | [2] -0.016 | [3] 0.007 | [4] 0.029 | Nexturastat A 0.07 | vemurafenib -0.033 | [5] -0.042 | [6] -0.026 | givinostat -0.038 | barasertib -0.02 | [7] 0.051 | volasertib 0.061 | [8] 0.03 | epoxomicin 0.013 | [9] -0.07 | [10] 0.003 | [11] 0.003 | rosiglitazone -0.057 | [12] 0.007 | [13] 0.017

Next part:

KATNB1 (UniProt Q9BVA0)
inactive: [1] -0.034 | [2] 0.011 | [3] 0.08 | [4] 0.04 | Nexturastat A 0.02 | vemurafenib -0.015 | [5] 0.029 | [6] 0.042 | givinostat 0.017 | barasertib 0.002 | [7] -0.012 | volasertib -0.096 | [8] 0.028 | epoxomicin -0.015 | [9] 0.021 | [10] -0.02 | [11] -0.031 | rosiglitazone 0.043 | [12] -0.008 | [13] -0.059

KDM2A (UniProt Q9Y2K7)
inactive: [1] -0.111 | [2] 0.029 | [3] -0.041 | [4] 0.069 | Nexturastat A -0.198 | vemurafenib 0.044 | [5] -0.014 | [6] -0.028 | givinostat 0.015 | barasertib 0.077 | [7] -0.145 | volasertib -0.167 | [8] -0.153 | epoxomicin -0.098 | [9] -0.058 | [10] 0 | [11] -0.069 | rosiglitazone -0.004 | [12] 0.028 | [13] -0.089

KDM1A isoform 2 (UniProt O60341)
inactive: [1] -0.029 | [2] 0.058 | [3] 0.01 | [4] 0.002 | Nexturastat A 0.023 | vemurafenib -0.02 | [5] 0.033 | [6] 0.046 | givinostat 0.101 | barasertib 0.013 | [7] 0.135 | volasertib -0.028 | [8] 0.06 | epoxomicin 0.101 | [10] -0.111 | [11] 0.006 | [12] -0.001 | [13] -0.091

KDELR2 (UniProt P33947)
inactive: [1] 0.058 | [2] 0.099 | [3] 0.064 | [4] -0.094 | Nexturastat A -0.13 | vemurafenib -0.079 | [5] -0.054 | [6] -0.128 | givinostat -0.064 | barasertib 0.036 | [7] 0.033 | volasertib -0.18 | [8] -0.089 | epoxomicin -0.02 | [10] -0.016 | [11] -0.125 | [12] -0.063 | [13] 0.255
